## Drug screen on melanoma cell lines: apoptosis marker

Data from the primary screen of doi:10.1371/journal.pone.0140310, rounded.

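Human melanoma cell lines in 1,536-well plates were treated with a pair of drugs for 72 h, then fixed, stained and imaged. Values are the share of nuclei positive for cleaved PARP as a percentage of the same share in the DMSO control: 100 is the control level, higher means more apoptosis. Every drug was used at one fixed concentration, the higher of two screened. The file gives one value for each pair and line, without errors, so small differences may be noise. The marker varies much from line to line, for technical or biological reasons.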
An unselected part of the screen is shown.
A dash means that no value is listed here.

Drugs:
Src-I1, 10 µM: COc1cc2ncnc(Nc3ccc(Oc4ccccc4)cc3)c2cc1OC
enzastaurin, 4 µM: Cn1cc(C2=C(c3cn(C4CCN(Cc5ccccn5)CC4)c4ccccc34)C(=O)NC2=O)c2ccccc21
vorinostat, 0.4 µM: O=C(CCCCCCC(=O)Nc1ccccc1)NO
pioglitazone, 10 µM: CCc1ccc(CCOc2ccc(CC3SC(=O)NC3=O)cc2)nc1 (stereo unspecified)
nutlin-3, 0.5 µM: COc1ccc(C2=N[C@@H](c3ccc(Cl)cc3)[C@@H](c3ccc(Cl)cc3)N2C(=O)N2CCNC(=O)C2)c(OC(C)C)c1
SNS-032, 0.05 µM: CC(C)(C)c1cnc(CSc2cnc(NC(=O)C3CCNCC3)s2)o1
IMD-0354, 0.08 µM: O=C(Nc1cc(C(F)(F)F)cc(C(F)(F)F)c1)c1cc(Cl)ccc1O
GW2580, 5 µM: COc1ccc(COc2ccc(Cc3cnc(N)nc3N)cc2OC)cc1
MK-2206, 2 µM: NC1(c2ccc(-c3nc4ccn5c(=O)[nH]nc5c4cc3-c3ccccc3)cc2)CCC1

Drugs | IST-MEL1 | 501mel | IPC-298 | RVH-421 | WM1745 | C32 | SK-MEL-30 | COLO 829
IMD-0354 + vorinostat | 289 | - | 43.0 | 101 | 115 | 163 | 146 | 91.1
pioglitazone + MK-2206 | 170 | 256 | 68.2 | 59.9 | - | 93.2 | 148 | 90.5
nutlin-3 + Src-I1 | 224 | 103 | 55.7 | 138 | - | 82.8 | 80.8 | 135
SNS-032 + enzastaurin | 72.5 | - | 74.7 | 410 | 183 | 88.4 | 249 | 99.2
GW2580 + SNS-032 | 162 | 56.5 | 39.1 | 94.0 | 101 | 96.4 | 71.0 | 131
pioglitazone + vorinostat | 126 | 220 | 43.1 | 185 | 248 | 88.7 | 95.0 | 111
MK-2206 + vorinostat | 223 | - | 83.9 | 121 | 88.8 | 38.1 | 341 | 170
enzastaurin + pioglitazone | 293 | 141 | 42.8 | 106 | - | 76.7 | 80.1 | 206
Src-I1 + MK-2206 | 193 | 142 | 116 | 197 | - | 150 | 126 | 148
enzastaurin + Src-I1 | 150 | 92.7 | 47.4 | 130 | - | 170 | 84.1 | 81.0
pioglitazone + IMD-0354 | 87.9 | 315 | 204 | 64.6 | - | 163 | 77.9 | 108
SNS-032 + vorinostat | 99.8 | - | 137 | 130 | 64.4 | 196 | 140 | 185
IMD-0354 + Src-I1 | 46.8 | 170 | 127 | 98.0 | - | 173 | 86.2 | 50.8
Src-I1 + pioglitazone | 60.6 | 128 | 59.0 | 38.3 | 146 | 159 | 213 | 33.9
vorinostat + GW2580 | 55.1 | 336 | 48.4 | 190 | 121 | 95.9 | 35.4 | 82.1
Src-I1 + GW2580 | 64.5 | 119 | 66.1 | 80.2 | 156 | 87.8 | 72.3 | 158
MK-2206 + SNS-032 | 101 | - | 33.4 | 126 | 112 | 103 | 144 | 120
Src-I1 + vorinostat | 58.9 | 151 | 56.8 | 78.3 | 122 | 88.5 | 61.8 | 75.5
pioglitazone + SNS-032 | 122 | 217 | 44.3 | 29.5 | 125 | 100 | 83.1 | 49.0
nutlin-3 + pioglitazone | 93.4 | 198 | 76.2 | 192 | - | 94.1 | 43.4 | 30.4
SNS-032 + nutlin-3 | 112 | - | 149 | 592 | 213 | 98.4 | 352 | 182
enzastaurin + MK-2206 | 69.2 | - | 111 | 210 | 193 | 159 | 79.4 | 103
vorinostat + nutlin-3 | 121 | - | 165 | 100 | 117 | 71.0 | 107 | 126
enzastaurin + nutlin-3 | 468 | - | 79.8 | 364 | 114 | 59.2 | 51.6 | 93.2
nutlin-3 + IMD-0354 | 62.9 | - | 72.8 | 75.6 | 69.6 | 207 | 34.6 | 188
IMD-0354 + GW2580 | 60.7 | 89.6 | 49.4 | 72.5 | - | 77.7 | 132 | 26.1
GW2580 + enzastaurin | 94.4 | 128 | 117 | 125 | - | 76.9 | 78.9 | 122
nutlin-3 + GW2580 | 171 | 47.1 | 154 | 46.5 | - | 114 | 121 | 59.5
SNS-032 + IMD-0354 | 44.0 | - | 85.1 | 95.4 | 90.8 | 175 | 84.2 | 105
enzastaurin + IMD-0354 | 53.6 | - | 140 | 53.2 | 134 | 15.2 | 81.4 | 152

2 of the entries, repeated:

Drugs,IST-MEL1,501mel,IPC-298,RVH-421,WM1745,C32,SK-MEL-30,COLO 829
Src-I1 + GW2580,64.5,119,66.1,80.2,156,87.8,72.3,158
pioglitazone + IMD-0354,87.9,315,204,64.6,-,163,77.9,108